Experimental data published in patent US20230399395A1.
Results are given in words; binding and its absence hold for the method and conditions named. Binding calls can cover weak binding; strength is not graded here.

Experiments:
[1] = biological target: cynomolgus macaques IL5 (cynomolgus macaques); test: ELISA, coated IL5, 2 µg/mL nanobody, anti-HA detection
[2] = biological target: cynomolgus macaques IL5 (cynomolgus macaques); test: ELISA (legend of FIG. 3)

| binding [1] | binding [2] | Binder |
| --- | --- | --- |
| binds | binds | Nb92 (VHH) VHH: QVQLQESGGGLVQPGGSLRLSCAASGFTFSNYYMSWVRQAPGKGLEWVSSISSDGSNTYYEDSVKGRFTISRDNANNTLYLQMNSLKSEDTALYHCATDLYDDSWYDHWGQGTQVTVSS |
| binds | binds | Nb66 (VHH) VHH: QVQLQESGGGSVQAGGSLRLSCAASGYTVSSNMGWFRQAPGKEREGVAAIYPDGATYYADSVKGRFTISQDNAENTVYLQMNSLKPEDTAMYYCAADLAFNGLGTLALHGYWGQGTQVTVSS |
| binds | binds | Nb21 (VHH) VHH: QVQLQESGGGSAQAGGSLKLSCVVSGYPYSGDYCMGWFRQAPGKEREGVAAFYTGGGSTYYADSVKGRFTTSQDNATSTFHLQMNSLKPEDTATYYCAADPWSVYGGSCGVKDPNPKAFNYWGQGTQVTVSS |
| binds | binds | Nb25 (VHH) VHH: QVQLQESGGGSVQAGGSLRLSCAASEYTYSRYCMGWFRQVPGKEREGVATIDSDGSTSYADSVKGRFTISKDNAKNTLYLQMNSLKPEDTAMYYCAARYFYIATTGLRPCGEYEYNYWGQGTQVTVSS |
